Measurements published in patent publication US20040058368A1 (PENN STATE RESEARCH FOUNDATION, published 2004).
These are yes or no findings as the source states them, for the method shown. Some results given as binding are weak or reduced against the parent protein; the word gives no strength. Tags and fused reporters may be left off the sequences shown.

T1: Myr-Hom3p (Saccharomyces cerevisiae (yeast)) (UniProt P10869)
T1 sequence (chain, N-myristoylation signal at the N terminus): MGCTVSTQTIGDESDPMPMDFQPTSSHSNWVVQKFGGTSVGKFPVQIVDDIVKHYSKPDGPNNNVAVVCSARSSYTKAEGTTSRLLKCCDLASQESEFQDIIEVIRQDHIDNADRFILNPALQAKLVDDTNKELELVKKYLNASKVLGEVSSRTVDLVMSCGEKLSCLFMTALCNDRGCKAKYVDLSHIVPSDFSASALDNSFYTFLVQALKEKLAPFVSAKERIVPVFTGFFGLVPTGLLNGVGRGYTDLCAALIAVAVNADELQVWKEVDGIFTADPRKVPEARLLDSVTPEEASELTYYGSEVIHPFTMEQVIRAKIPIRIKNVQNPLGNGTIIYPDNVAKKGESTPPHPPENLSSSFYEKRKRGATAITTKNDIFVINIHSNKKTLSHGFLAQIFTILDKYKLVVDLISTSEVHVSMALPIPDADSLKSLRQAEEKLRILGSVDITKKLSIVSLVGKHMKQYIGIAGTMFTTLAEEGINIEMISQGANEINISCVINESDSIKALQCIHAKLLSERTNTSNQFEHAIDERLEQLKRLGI

T2: Myr-TAF145 (Saccharomyces cerevisiae (yeast)) (UniProt P46677)
T2 sequence (chain, N-myristoylation signal at the N terminus): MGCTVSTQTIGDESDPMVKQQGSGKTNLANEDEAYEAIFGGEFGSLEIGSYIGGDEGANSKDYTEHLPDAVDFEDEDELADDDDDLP


Columns and labels:
[1] = target: T1, Myr-Hom3p (Saccharomyces cerevisiae (yeast)); assay: 80-Trap HIS3 reporter growth assay in yeast
[2] = target: T2, Myr-TAF145 (Saccharomyces cerevisiae (yeast)); assay: 80-Trap HIS3 reporter growth assay in yeast

binding [1] | binding [2] | Molecule
binds |  | Gal80-Fpr1p fusion (from UniProt P04387 1-435; P20081 1-114)
 | binds | Gal80-TBP (protein, UniProt P04387 1-435, looked up) MDYNKRSSVSTVPNAAPIRVGFVGLNAAKGWAIKTHYPAILQLSSQFQITALYSPKIETSIATIQRLKLSNATAFPTLESFASSSTIDMIVIAIQVASHYEVVMPLLEFSKNNPNLKYLFVEWALACSLDQAESIYKAAAERGVQTIISLQGRKSPYILRAKELISQGYIGDINSIEIAGNGGWYGYERPVKSPKYIYEIGNGVDLVTTTFGHTIDILQYMTSSYFSRINAMVFNNIPEQELIDERGNRLGQRVPKTVPDHLLFQGTLLNGNVPVSCSFKGGKPTKKFTKNLVIDIHGTKGDLKLEGDAGFAEISNLVLYYSGTRANDFPLANGQQAPLDPGYDAGKEIMEVYHLRNYNAIVGNIHRLYQSISDFHFNTKKIPELPSQFVMQGFDFEGFPTLMDALILHRLIESVYKSNMMGSTLNVSNISHYSLMADEERLKEFKEANKIVFDPNTRQVWENQNRDGTKPATTFQSEEDIKRAAPESEKDTSATSGIVPTLQNIVATVTLGCRLDLKTVALHARNAEYNPKRFAAVIMRIREPKTTALIFASGKMVVTGAKSEDDSKLASRKYARIIQKIGFAAKFTDFKIQNIVGSCDVKFPIRLEGLAFSHGTFSSYEPELFPGLIYRMVKPKIVLLIFVSGKIVLTGAKQREEIYQAFEAIYPVLSEFRKM
